PMC12786370

The chains behind the UniProt entries cited, without tags or fusion partners. Residues count along the entry.
UniProt P19875, residues 35-107: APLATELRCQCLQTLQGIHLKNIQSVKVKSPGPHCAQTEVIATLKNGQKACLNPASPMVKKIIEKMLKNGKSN
UniProt P67809: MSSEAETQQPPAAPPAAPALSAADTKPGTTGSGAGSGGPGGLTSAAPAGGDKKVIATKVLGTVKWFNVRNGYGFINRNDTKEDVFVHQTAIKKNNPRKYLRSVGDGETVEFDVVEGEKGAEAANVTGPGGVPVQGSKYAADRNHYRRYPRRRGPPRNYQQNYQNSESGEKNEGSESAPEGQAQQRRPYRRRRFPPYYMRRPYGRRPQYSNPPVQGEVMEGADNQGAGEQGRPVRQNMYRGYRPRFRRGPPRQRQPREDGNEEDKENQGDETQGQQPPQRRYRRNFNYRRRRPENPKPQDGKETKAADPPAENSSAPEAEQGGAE

Biological target: C-X-C motif chemokine ligand 2 (CXCL2), Flag-tagged, full length, overexpressed in HCC cells (UniProt P19875)
Assay: affinity purification with mass spectrometry; immunoprecipitate of CXCL2 (IP) against IgG, LC-MS/MS; cells and antibody not told in the text shown

Y-Box Binding Protein 1 (YBX1) in HCC cells (from UniProt P67809 1-324)
binding: binds

No constants are given. Whether binding was seen depends on the method and setting. Binding seen in cells or lysates may run through a third protein. A yes stands for co-enrichment or nearness to the bait. Other partners may have been found.
